In publication PMC9857240 one finds binding data, which are given here for 2 molecules.

Results are given in words; binding and its absence hold for the method and conditions named. Binding can be weak; no strength is given. For some assays here: Binding seen in cells or lysates may run through a third protein.

Experiment [1] deals with T1, Importin 13 (two-hybrid bait, amino acids 1-963) (mouse) (UniProt Q8K0C1).
T1 sequence: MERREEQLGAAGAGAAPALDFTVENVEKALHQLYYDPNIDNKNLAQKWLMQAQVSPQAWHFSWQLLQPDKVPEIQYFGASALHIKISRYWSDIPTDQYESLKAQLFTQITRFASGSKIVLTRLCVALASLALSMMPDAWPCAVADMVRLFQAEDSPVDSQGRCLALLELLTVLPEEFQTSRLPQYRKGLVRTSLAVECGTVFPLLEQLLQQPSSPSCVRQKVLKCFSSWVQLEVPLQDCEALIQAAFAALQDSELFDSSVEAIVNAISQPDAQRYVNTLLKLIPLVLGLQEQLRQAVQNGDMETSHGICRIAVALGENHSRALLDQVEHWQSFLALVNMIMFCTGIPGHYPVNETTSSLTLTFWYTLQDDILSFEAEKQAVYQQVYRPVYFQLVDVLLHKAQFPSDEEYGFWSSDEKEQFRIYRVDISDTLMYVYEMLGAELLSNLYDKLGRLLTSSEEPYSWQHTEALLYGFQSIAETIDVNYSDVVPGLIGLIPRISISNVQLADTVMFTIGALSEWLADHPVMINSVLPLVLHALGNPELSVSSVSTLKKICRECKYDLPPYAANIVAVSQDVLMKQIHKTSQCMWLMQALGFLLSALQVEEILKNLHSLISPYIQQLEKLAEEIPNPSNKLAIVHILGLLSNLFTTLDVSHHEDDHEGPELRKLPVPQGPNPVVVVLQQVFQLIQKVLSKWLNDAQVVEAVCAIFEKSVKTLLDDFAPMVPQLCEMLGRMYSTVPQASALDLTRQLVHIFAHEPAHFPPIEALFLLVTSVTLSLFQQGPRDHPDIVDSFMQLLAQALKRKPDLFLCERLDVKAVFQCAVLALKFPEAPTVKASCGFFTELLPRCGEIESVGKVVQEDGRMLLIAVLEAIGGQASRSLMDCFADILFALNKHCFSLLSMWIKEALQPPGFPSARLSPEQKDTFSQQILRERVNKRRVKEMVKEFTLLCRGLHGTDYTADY
Briefly: two-hybrid; screen by Hybrigenics; IPO13 amino acids 1-963 as bait, cDNA libraries from human lung, brain and testis as prey.

In a further experiment the target is GFP-nCLU. Put plainly: co-IP; HeLa co-expressing GFP-nCLU and DsRed2-IPO13, with or without 125 uM H2O2 for 1 h before lysis; GFP-Trap resin; Western blot.

Regarding “Tripartite Motif-Containing 26 (human) (domain or fragment)”, the binding entry in experiment [1] is listed as “binds”.

B1: DsRed2-IPO13 (protein, UniProt Q8K0C1 1-963)
chain: MERREEQLGAAGAGAAPALDFTVENVEKALHQLYYDPNIDNKNLAQKWLMQAQVSPQAWHFSWQLLQPDKVPEIQYFGASALHIKISRYWSDIPTDQYESLKAQLFTQITRFASGSKIVLTRLCVALASLALSMMPDAWPCAVADMVRLFQAEDSPVDSQGRCLALLELLTVLPEEFQTSRLPQYRKGLVRTSLAVECGTVFPLLEQLLQQPSSPSCVRQKVLKCFSSWVQLEVPLQDCEALIQAAFAALQDSELFDSSVEAIVNAISQPDAQRYVNTLLKLIPLVLGLQEQLRQAVQNGDMETSHGICRIAVALGENHSRALLDQVEHWQSFLALVNMIMFCTGIPGHYPVNETTSSLTLTFWYTLQDDILSFEAEKQAVYQQVYRPVYFQLVDVLLHKAQFPSDEEYGFWSSDEKEQFRIYRVDISDTLMYVYEMLGAELLSNLYDKLGRLLTSSEEPYSWQHTEALLYGFQSIAETIDVNYSDVVPGLIGLIPRISISNVQLADTVMFTIGALSEWLADHPVMINSVLPLVLHALGNPELSVSSVSTLKKICRECKYDLPPYAANIVAVSQDVLMKQIHKTSQCMWLMQALGFLLSALQVEEILKNLHSLISPYIQQLEKLAEEIPNPSNKLAIVHILGLLSNLFTTLDVSHHEDDHEGPELRKLPVPQGPNPVVVVLQQVFQLIQKVLSKWLNDAQVVEAVCAIFEKSVKTLLDDFAPMVPQLCEMLGRMYSTVPQASALDLTRQLVHIFAHEPAHFPPIEALFLLVTSVTLSLFQQGPRDHPDIVDSFMQLLAQALKRKPDLFLCERLDVKAVFQCAVLALKFPEAPTVKASCGFFTELLPRCGEIESVGKVVQEDGRMLLIAVLEAIGGQASRSLMDCFADILFALNKHCFSLLSMWIKEALQPPGFPSARLSPEQKDTFSQQILRERVNKRRVKEMVKEFTLLCRGLHGTDYTADY
In the case of B1, the binding entry with GFP-nCLU was “binds”.
